PubChem BioAssay AID1259254 – NCATS – 2017
In all, the deposit lists about 59,000 reagents; this is an unselected part. Of all reagents, about 1,550 (2.6%) are marked active. 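G2 share is only a proxy for re-replication; each gene was hit by three separate siRNAs, and active genes were retested.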 Reagents against one gene are numbered here. Further read-outs or replicates are left out here. The record does not give: the amount of reagent.

Assay: 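Genome-wide screen for genes that prevent DNA re-replication in cancer cells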 (primary screen)
System: human HCT116 colorectal cancer cells
Knock-down reagent: single siRNA against human genes
Duration: 3 days
Measurement: 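Nuclei stained with Hoechst and imaged; cell-cycle phase assigned by DNA content; G2 share scaled per plate, non-targeting siRNA 0%, GMNN siRNA 100%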
Reading the numbers: G2 robust z-score: higher = more G2 cells, more excess DNA replication
Call rule: 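Active siRNAs have a G2 robust z of 5 or more median absolute deviations over the median, which in these data means about 38% or higher of GMNN control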

target | siRNA no. | G2 robust z-score | call
PIK3C2G | 1 | -0.653 | inactive
PIK3C2G | 2 | 4 | inactive
PIK3C2G | 3 | -0.925 | inactive
HIC2 | 1 | 2.21 | inactive
HIC2 | 2 | 1.37 | inactive
HIC2 | 3 | 0.132 | inactive
CCDC60 | 1 | 0.237 | inactive
CCDC60 | 2 | 0.0603 | inactive
CCDC60 | 3 | 2.57 | inactive
FNDC11 | 1 | 0.355 | inactive
FNDC11 | 2 | -1.14 | inactive
FNDC11 | 3 | -0.351 | inactive
SLC38A10 | 1 | -0.24 | inactive
SLC38A10 | 2 | 3.46 | inactive
SLC38A10 | 3 | 1.42 | inactive
FAM219B | 1 | -0.269 | inactive
FAM219B | 2 | -0.558 | inactive
FAM219B | 3 | -0.15 | inactive
CELSR3 | 1 | 0.899 | inactive
CELSR3 | 2 | 0.497 | inactive
CELSR3 | 3 | 0.569 | inactive
FBXL6 | 1 | 0.0355 | inactive
FBXL6 | 2 | 2.8 | inactive
FBXL6 | 3 | 0.684 | inactive
INSL6 | 1 | 0.711 | inactive
INSL6 | 2 | -1.2 | inactive
INSL6 | 3 | -0.549 | inactive
ALG10B | 1 | -0.724 | inactive
ALG10B | 2 | -1.3 | inactive
ALG10B | 3 | 0.621 | inactive
SLC5A11 | 1 | 1.76 | inactive
SLC5A11 | 2 | 0.744 | inactive
SLC5A11 | 3 | 0.507 | inactive
ZRANB3 | 1 | -0.0291 | inactive
ZRANB3 | 2 | 0.0716 | inactive
ZRANB3 | 3 | 0.00948 | inactive
SPDYE7P | 1 | -0.741 | inactive
SPDYE7P | 2 | -0.13 | inactive
SPDYE7P | 3 | 0.951 | inactive
CASP7 | 1 | -0.116 | inactive
CASP7 | 2 | 5.77 | active
CASP7 | 3 | -0.809 | inactive
TRIM59 | 1 | 1.86 | inactive
TRIM59 | 2 | 1.26 | inactive
TRIM59 | 3 | -0.46 | inactive
CRELD2 | 1 | -0.655 | inactive
CRELD2 | 2 | 0.105 | inactive
CRELD2 | 3 | 0.366 | inactive
TMEM273 | 1 | 0.772 | inactive
TMEM273 | 2 | 0.361 | inactive
TMEM273 | 3 | -0.625 | inactive
EMC2 | 1 | -0.569 | inactive
EMC2 | 2 | -0.334 | inactive
EMC2 | 3 | 0.482 | inactive
TEAD1 | 1 | 3.91 | inactive
TEAD1 | 2 | 0.134 | inactive
TEAD1 | 3 | -0.221 | inactive
KRT27 | 1 | 0.485 | inactive
KRT27 | 2 | 0.131 | inactive
KRT27 | 3 | -0.656 | inactive
C20orf173 | 1 | -0.475 | inactive
C20orf173 | 2 | 0.815 | inactive
C20orf173 | 3 | -0.779 | inactive
CLTA | 1 | 7.68 | active
CLTA | 2 | -0.547 | inactive
CLTA | 3 | -0.881 | inactive
ANKS6 | 1 | -0.34 | inactive
ANKS6 | 2 | -0.437 | inactive
ANKS6 | 3 | -0.61 | inactive
